Some results were stated once for a whole list of compounds, not compound by compound.
Each compound was assayed against T1, CRF receptor (Macaca mulatta, UniProt Q76LL8) (assay: CRF receptor binding test (125I-CRF, monkey amygdala membranes)). Conditions: 0.2 nM 125I-CRF, 25° C. for 2 hours, read-out: IC50 (concentration of the test drug at which binding of 125I-CRF is inhibited by 50%).
T1 sequence (Q76LL8 24-415): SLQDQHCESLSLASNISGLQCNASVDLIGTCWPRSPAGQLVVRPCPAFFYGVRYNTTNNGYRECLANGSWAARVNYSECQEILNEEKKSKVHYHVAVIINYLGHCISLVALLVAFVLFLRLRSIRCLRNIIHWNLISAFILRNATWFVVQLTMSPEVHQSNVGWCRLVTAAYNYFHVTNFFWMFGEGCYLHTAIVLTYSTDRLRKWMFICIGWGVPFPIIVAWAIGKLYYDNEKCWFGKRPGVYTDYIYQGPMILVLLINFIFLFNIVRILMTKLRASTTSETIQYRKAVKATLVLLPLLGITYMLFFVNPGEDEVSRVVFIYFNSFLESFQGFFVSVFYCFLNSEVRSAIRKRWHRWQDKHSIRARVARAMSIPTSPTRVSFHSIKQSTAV
For `Cc1nc(N2CC=C(C#N)CC2)c2c(C)c(C)n(-c3c(C)cc(Br)cc3C)c2n1` [1-001], the IC50 was at most 100 nM. `Cc1nc(N2CC=C(C#N)CC2)c2c(C)cn(-c3c(C)cc(Br)cc3C)c2n1` [1-002] showed an IC50 of at most 100 nM. In the case of `Cc1nc(N2CCC=C(C#N)C2)c2c(C)c(C)n(-c3c(C)cc(Br)cc3C)c2n1` [1-005], the IC50 is reported as at most 100 nM. `Cc1nc(N2CCC=C(C#N)C2)c2c(C)cn(-c3c(C)cc(Br)cc3C)c2n1` [1-006] gave an IC50 of at most 100 nM. With `CCc1cc(Br)cc(CC)c1-n1c(C)c(C)c2c(N3CCC=C(C#N)C3)nc(C)nc21` [1-007] the IC50 was at most 100 nM. For `CCc1cc(Br)cc(CC)c1-n1cc(C)c2c(N3CCC=C(C#N)C3)nc(C)nc21` [1-008], the IC50 was at most 100 nM. Compound `Cc1nc(N2CC=C(CC#N)CC2)c2c(C)c(C)n(-c3c(C)cc(Br)cc3C)c2n1` [1-009] has an IC50 of at most 100 nM. With `Cc1nc(N2CC=C(CC#N)CC2)c2c(C)cn(-c3c(C)cc(Br)cc3C)c2n1` [1-010] the IC50 was at most 100 nM. Compound `Cc1cc(N2CC=C(CO)CC2)c2c(C)cn(-c3c(C)cc(Br)cc3C)c2n1` [1-012] has an IC50 of at most 100 nM. `Cc1cc(N2CC=C(CCO)CC2)c2c(C)cn(-c3c(C)cc(Br)cc3C)c2n1` [compound 1-014, 2-{1-[1-(4-bromo-2,6-dimethylphenyl)-3,6-dimethyl-1H-pyrrolo[2,3-b]pyridin-4-yl]-1,2,3,6-tetrahydropyridin-4-yl}ethanol] showed an IC50 of at most 100 nM.

Reference: patent publication US20070293670A1, “Pyrrolopyrimidine and Pyrrolopyridine Derivatives Substituted with Tetrahydropyridine as Crf Antagonists” (TAISHO PHARMACEUTICAL CO., LTD., priority 2004, published 2007)
